Results are given in words; binding and its absence hold for the method and conditions named. For part of these data: Binding seen in cells or lysates may run through a third protein. Some results given as binding are weak or reduced against the parent protein; the word gives no strength.

Amino acid sequences for entries named in this document (tags omitted). A change or cut given only in a name is not applied to a line headed by its entry. Chains listed by the source or under a name are the forms on record and can include a tag or linker.
soluble Fms-like tyrosine kinase-1 (human (endogenous in serum)) (P17948, form named): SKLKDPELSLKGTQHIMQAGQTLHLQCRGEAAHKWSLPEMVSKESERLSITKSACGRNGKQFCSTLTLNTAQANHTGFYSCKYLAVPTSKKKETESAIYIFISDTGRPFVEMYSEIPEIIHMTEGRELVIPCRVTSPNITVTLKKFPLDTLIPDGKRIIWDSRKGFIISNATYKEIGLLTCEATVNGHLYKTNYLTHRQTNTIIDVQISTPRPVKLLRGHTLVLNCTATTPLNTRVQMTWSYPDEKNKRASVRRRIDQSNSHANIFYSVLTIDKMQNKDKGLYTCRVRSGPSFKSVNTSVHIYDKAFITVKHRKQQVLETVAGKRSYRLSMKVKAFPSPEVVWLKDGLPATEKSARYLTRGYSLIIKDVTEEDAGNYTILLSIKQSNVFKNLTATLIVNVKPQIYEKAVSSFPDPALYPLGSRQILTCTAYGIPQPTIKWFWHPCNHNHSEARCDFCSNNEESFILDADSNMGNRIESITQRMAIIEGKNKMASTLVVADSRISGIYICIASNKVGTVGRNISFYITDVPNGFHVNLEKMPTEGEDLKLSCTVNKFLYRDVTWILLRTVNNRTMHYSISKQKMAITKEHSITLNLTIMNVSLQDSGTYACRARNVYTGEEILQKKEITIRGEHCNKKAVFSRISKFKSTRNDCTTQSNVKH
UniProt P21926: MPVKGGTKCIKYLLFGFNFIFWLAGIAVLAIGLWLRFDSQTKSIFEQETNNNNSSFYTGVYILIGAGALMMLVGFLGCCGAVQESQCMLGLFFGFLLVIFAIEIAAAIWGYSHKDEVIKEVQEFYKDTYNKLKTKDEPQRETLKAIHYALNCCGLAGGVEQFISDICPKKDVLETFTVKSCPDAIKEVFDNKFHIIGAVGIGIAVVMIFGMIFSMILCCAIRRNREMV

The values that follow come from paper PMC11404752.

Assay [1] addresses T1, placental growth factor (human (endogenous in serum)) (UniProt P49763).
T1 sequence: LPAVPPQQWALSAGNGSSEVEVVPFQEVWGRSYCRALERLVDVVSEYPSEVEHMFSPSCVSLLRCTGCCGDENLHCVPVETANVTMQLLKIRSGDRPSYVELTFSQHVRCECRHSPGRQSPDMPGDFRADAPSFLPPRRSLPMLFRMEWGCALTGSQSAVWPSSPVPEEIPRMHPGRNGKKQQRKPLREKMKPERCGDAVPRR
Description: co-IP; anti-PlGF or anti-Flt-1 (2 ug/mL) added to a serum pool for 30 minutes at room temperature, captured by Dynabeads Streptavidin, immunoblotting of PlGF, sFlt-1, CD9, ApoA-I and ApoB.

For assay [2], the target named is soluble Fms-like tyrosine kinase-1 (human (endogenous in serum)) (UniProt P17948). The assay is described as above.
Assay [3] has the same target. The experiment in a line: ELISA; free versus total PlGF in FPLC fractions of serum; total PlGF measured after heating the samples at 70 °C for 10 minutes to destroy sFlt-1.

For the molecule CD9 (from UniProt P21926 1-228), the binding entry in assay [1] and in assay [2] was “binds” in each case.

B1: placental growth factor (ligand, UniProt P49763 19-221)
chain: T1 sequence
Take B1: the binding entry in assay [3] is on record as “binds”.
